34 substances from PMC7140707 can be followed below.

Chains of the proteins cited; added tags and fusions are not shown.
UniProt P38328: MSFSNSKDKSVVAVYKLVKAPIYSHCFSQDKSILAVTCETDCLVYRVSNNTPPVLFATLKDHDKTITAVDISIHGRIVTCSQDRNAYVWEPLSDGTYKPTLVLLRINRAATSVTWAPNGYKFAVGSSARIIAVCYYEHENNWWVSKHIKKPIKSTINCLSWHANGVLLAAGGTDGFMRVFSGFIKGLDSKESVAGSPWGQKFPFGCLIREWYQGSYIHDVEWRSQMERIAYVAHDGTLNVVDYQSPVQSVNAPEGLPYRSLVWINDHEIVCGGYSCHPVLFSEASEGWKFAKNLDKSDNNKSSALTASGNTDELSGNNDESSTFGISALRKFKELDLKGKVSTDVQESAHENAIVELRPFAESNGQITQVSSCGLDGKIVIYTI
UniProt P08678: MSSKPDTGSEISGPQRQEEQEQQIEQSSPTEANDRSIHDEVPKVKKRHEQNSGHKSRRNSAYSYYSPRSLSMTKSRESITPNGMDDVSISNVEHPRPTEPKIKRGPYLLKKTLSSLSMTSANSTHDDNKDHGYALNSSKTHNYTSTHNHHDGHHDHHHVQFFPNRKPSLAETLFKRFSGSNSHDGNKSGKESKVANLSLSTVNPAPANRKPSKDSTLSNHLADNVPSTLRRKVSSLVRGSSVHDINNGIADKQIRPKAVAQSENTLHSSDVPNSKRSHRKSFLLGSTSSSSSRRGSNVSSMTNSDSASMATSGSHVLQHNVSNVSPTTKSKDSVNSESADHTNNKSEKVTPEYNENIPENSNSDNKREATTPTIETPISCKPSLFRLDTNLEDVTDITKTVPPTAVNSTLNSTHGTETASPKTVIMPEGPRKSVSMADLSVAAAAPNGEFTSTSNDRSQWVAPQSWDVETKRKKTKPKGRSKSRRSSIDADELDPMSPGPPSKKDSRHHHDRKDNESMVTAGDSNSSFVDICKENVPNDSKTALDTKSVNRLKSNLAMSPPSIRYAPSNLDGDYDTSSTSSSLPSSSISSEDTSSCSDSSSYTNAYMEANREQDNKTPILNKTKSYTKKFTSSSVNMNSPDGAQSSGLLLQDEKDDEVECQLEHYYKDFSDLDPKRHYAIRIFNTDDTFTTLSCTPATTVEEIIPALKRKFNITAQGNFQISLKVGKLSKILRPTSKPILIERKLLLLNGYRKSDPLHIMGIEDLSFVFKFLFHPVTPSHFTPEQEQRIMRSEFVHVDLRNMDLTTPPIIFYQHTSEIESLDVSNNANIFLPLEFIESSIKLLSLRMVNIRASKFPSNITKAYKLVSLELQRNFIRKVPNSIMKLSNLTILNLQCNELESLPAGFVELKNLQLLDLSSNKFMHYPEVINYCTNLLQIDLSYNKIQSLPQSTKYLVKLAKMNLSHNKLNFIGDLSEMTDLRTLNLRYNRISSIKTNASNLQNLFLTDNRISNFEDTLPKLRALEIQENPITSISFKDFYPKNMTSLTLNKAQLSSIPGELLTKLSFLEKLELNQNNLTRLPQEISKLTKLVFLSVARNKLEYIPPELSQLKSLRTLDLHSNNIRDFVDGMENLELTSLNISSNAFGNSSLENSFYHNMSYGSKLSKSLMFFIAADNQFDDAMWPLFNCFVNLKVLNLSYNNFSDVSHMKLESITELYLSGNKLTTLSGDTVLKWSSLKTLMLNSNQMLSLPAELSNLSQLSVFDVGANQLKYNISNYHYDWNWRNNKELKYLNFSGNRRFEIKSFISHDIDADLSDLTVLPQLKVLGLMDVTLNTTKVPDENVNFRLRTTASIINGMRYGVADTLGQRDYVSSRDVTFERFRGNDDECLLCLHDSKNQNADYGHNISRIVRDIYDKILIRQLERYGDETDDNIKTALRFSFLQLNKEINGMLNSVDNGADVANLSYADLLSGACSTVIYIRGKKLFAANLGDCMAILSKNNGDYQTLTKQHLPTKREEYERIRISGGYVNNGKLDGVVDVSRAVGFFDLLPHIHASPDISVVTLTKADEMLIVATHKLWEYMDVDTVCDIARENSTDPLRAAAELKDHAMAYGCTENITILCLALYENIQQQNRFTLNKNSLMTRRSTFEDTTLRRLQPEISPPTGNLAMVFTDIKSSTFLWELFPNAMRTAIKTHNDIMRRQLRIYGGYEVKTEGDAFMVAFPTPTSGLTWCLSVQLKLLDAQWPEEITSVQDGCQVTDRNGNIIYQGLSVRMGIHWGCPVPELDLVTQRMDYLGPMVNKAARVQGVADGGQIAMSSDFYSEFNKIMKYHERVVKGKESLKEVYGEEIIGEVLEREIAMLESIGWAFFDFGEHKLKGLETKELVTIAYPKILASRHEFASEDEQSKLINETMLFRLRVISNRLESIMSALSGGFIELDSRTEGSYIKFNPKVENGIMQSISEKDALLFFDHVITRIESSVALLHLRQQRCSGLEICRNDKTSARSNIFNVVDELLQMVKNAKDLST
UniProt P02294: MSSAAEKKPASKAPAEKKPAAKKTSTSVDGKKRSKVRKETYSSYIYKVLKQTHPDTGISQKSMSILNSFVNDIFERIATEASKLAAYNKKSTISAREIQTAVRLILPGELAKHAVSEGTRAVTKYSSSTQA
UniProt P39943: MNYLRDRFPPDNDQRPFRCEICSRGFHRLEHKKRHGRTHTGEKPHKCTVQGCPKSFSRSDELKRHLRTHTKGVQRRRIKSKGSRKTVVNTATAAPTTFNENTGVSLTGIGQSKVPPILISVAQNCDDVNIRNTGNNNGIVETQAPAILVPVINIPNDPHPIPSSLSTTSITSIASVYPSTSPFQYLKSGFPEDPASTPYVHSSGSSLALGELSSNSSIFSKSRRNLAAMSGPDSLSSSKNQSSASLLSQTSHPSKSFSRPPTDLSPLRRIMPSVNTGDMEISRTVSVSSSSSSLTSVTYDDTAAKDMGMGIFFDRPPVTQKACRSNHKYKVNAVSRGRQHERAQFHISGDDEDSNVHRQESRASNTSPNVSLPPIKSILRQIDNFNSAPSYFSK
UniProt Q03558: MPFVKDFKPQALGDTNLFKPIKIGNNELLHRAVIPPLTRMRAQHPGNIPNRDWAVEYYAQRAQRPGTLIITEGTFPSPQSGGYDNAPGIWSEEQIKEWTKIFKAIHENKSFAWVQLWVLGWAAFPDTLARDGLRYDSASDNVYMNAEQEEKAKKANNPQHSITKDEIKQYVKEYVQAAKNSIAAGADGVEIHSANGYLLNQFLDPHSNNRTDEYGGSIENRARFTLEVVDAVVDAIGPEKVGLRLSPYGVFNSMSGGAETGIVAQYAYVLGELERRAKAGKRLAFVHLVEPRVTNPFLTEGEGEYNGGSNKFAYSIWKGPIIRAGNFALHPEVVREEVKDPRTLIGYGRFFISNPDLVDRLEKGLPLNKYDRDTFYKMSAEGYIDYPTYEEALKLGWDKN
UniProt P32569: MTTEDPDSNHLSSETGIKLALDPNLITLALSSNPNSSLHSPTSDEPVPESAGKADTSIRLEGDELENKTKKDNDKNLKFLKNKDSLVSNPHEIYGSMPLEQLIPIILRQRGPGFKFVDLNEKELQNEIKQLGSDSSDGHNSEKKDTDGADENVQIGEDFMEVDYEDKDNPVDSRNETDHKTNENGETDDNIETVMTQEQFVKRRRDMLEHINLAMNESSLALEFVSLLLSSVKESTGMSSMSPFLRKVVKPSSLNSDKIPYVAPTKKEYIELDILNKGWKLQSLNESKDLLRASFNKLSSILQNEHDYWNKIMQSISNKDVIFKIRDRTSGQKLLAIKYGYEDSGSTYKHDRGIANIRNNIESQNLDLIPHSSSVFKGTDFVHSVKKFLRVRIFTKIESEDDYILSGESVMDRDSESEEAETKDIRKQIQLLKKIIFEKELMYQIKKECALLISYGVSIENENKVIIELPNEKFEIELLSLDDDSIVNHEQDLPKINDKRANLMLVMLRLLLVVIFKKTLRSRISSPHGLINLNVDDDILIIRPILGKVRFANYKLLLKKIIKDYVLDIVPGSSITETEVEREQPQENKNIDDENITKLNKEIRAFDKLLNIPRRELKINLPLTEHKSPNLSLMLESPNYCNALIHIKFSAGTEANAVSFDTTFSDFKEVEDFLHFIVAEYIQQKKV
UniProt P17555: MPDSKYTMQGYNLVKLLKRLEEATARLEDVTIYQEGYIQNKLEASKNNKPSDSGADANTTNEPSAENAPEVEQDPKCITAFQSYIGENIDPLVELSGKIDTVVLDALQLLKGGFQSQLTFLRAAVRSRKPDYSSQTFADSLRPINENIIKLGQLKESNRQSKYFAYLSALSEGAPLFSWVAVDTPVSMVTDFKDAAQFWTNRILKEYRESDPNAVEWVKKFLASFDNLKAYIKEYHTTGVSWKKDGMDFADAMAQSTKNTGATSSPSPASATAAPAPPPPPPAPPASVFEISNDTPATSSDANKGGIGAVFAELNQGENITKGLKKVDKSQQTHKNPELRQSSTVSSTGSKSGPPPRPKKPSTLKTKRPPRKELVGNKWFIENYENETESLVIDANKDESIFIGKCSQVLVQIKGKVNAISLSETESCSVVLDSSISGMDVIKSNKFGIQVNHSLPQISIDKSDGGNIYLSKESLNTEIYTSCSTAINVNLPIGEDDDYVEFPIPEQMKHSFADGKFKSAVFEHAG
UniProt P32867: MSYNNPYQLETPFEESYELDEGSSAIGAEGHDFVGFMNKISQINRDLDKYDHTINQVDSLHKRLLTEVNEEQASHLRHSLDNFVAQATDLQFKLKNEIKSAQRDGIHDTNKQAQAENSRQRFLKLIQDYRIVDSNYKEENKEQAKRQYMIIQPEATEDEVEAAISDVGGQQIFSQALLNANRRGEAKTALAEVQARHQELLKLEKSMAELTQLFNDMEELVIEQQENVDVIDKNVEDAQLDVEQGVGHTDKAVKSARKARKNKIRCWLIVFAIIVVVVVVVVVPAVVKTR
UniProt P00360: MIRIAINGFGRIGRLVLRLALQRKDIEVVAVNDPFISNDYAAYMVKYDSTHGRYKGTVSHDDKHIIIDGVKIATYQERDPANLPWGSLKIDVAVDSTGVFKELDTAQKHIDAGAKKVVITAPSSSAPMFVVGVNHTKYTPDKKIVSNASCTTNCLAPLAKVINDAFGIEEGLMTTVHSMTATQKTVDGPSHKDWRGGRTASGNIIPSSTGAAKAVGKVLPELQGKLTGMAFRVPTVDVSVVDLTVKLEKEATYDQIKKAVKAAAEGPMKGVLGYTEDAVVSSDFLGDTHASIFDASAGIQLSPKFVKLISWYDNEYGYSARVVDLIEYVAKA
UniProt P02557: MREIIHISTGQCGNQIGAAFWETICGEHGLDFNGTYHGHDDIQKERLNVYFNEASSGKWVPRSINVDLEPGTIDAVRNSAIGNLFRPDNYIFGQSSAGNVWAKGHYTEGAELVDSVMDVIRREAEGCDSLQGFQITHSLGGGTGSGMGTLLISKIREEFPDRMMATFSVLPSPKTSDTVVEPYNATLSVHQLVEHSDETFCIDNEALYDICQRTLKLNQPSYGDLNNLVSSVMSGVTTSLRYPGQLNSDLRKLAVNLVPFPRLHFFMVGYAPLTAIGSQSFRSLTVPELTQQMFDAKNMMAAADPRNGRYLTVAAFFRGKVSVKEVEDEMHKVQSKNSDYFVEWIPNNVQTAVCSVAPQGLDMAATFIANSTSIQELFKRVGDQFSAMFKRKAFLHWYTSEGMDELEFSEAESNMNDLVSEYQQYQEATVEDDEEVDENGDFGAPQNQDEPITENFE
UniProt P50111: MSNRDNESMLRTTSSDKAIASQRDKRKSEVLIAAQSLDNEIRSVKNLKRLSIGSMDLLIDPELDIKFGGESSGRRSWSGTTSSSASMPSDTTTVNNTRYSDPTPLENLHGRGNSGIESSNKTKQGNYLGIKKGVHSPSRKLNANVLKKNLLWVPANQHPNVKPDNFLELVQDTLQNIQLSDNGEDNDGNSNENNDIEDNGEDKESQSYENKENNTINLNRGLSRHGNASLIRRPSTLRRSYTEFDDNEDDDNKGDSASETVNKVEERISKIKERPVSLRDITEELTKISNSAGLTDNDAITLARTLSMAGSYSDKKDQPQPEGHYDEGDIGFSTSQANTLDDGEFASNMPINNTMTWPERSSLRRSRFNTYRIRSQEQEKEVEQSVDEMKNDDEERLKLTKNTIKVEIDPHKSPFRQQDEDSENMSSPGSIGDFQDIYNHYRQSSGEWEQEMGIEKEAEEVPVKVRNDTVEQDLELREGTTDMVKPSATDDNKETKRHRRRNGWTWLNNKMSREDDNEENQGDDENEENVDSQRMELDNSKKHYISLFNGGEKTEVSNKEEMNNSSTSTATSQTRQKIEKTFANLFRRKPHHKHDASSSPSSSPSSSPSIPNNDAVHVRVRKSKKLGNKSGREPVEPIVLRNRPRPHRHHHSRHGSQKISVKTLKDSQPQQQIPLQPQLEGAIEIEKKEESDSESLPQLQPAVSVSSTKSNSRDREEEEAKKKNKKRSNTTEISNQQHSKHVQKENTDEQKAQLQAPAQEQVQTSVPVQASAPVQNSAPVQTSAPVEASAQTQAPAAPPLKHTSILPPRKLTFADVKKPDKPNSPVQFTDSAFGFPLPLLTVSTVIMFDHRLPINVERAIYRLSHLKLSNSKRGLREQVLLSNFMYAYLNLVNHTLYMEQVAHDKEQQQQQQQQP

This experiment has as its target T1, His6-Gis1 (yeast (S. cerevisiae)) (UniProt Q03833).
T1 sequence: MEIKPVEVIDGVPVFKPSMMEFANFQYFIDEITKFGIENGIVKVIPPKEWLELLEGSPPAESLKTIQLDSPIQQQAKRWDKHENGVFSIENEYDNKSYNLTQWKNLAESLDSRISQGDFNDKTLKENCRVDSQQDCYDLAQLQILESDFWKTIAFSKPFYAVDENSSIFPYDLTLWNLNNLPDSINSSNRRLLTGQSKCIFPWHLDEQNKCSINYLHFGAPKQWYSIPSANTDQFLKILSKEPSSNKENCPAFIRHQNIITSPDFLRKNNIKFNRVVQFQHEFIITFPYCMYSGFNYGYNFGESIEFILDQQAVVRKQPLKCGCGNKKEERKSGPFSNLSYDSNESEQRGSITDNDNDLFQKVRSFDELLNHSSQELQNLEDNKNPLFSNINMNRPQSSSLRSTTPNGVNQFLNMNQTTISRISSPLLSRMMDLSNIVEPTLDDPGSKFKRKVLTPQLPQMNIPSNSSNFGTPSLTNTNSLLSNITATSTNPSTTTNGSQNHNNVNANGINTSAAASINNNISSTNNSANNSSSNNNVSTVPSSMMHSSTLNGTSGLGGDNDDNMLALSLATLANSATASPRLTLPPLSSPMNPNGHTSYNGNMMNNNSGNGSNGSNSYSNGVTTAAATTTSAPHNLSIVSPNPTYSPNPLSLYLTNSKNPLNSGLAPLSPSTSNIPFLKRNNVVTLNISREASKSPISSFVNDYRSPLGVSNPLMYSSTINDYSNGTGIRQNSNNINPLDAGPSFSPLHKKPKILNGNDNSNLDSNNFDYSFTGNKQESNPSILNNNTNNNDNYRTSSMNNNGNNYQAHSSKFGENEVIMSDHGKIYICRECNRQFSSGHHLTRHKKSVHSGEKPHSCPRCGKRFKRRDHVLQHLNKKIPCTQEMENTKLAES
Description: affinity purification with mass spectrometry; His6-Gis1 pre-bound to a Ni Sepharose 6 Fast Flow column; crude yeast extract (Δgis1 cells grown in air or under hypoxia, Δgis1Δhem1 cells at intermediate or high ALA) loaded, 4 °C, 2 h; eluted complexes separated by SDS-PAGE, bands excised, MS; only the target purified.

These are yes or no findings as the source states them, for the method shown. In cells and extracts the contact can be indirect. These calls come from enrichment with a bait or labelling near it, and not all partners need be listed. Sequences can lack the tags named with a protein.

Turning to ACT1 (from UniProt P60010 1-375), the binding entry is “binds”.

Consider ARC40 (from UniProt P38328 1-384), for which the binding result is given as “binds”.

Regarding ATP1 (from UniProt P07251 36-545), the binding entry is listed as “binds”.

In the case of BEM2 (from UniProt P39960 1-2167), the binding result is on record as “binds”.

In the case of CDC33 (from UniProt P07260 1-213), the binding result is listed as “binds”.

Turning to CPR1 (from UniProt P14832 1-162), the binding entry is “binds”.

Regarding CYR1 (from UniProt P08678 1-2026), the binding entry is given as “binds”.

Consider ERG11 (from UniProt P10614 1-530), for which the binding result was “binds”.

Regarding HRK1 (from UniProt Q08732 1-759), the binding result is given as “binds”.

Turning to HSP42 (from UniProt Q12329 1-375), the binding result is on record as “binds”.

Regarding HTB2 (from UniProt P02294 1-131), the binding entry is given as “binds”.

As to ILV1, the binding entry is recorded as “binds”.

In the case of IPP1 (from UniProt P00817 1-287), the binding result is listed as “binds”.

As to LYS12 (from UniProt P40495 23-371), the binding entry was “binds”.

With LYS21, the binding result was “binds”.

Consider MIG1 (from UniProt P27705 1-504), for which the binding result is “binds”.

As for MIG3 (from UniProt P39943 1-394), the binding result was “binds”.

Consider NOG2 (from UniProt P53742 1-486), for which the binding entry is reported as “binds”.

For the substance NUP60 (from UniProt P39705 1-539), the binding result is recorded as “binds”.

Regarding OYE2 (from UniProt Q03558 1-400), the binding result is “binds”.

As to PBP1 (from UniProt P53297 1-722), the binding entry is on record as “binds”.

Regarding PGI1 (from UniProt P12709 1-554), the binding result is reported as “binds”.

In the case of RVB2 (from UniProt Q12464 1-471), the binding entry is on record as “binds”.

Consider RVS167 (from UniProt P39743 1-482), for which the binding result is on record as “binds”.

Consider SRB4 (from UniProt P32569 1-687), for which the binding result is “binds”.

In the case of SRV2 (from UniProt P17555 1-526), the binding result was “binds”.

As to SSO1 (from UniProt P32867 1-290), the binding result is “binds”.

TDH1 (from UniProt P00360 1-332): the binding result is “binds”.

Turning to TUB1 (from UniProt P09733 1-447), the binding result is “binds”.

As to TUB2 (from UniProt P02557 1-457), the binding result is “binds”.

YBR238C: the binding entry is reported as “binds”.

YCK2 (from UniProt P23292 1-546): the binding entry is given as “binds”.

Turning to YDR365-WB, the binding entry is “binds”.

On to ZDS1 (from UniProt P50111 1-915), for which the binding result is recorded as “binds”.
